In publication PMC5830979, “Preclinical In Vitro and In Vivo Evaluation of [^18F]FE@SUPPY for Cancer PET Imaging: Limitations of a Xenograft Model for Colorectal Cancer” (Contrast Media & Molecular Imaging, 2018):

System: HT-29 xenografts
Assay: µPET imaging of HT-29 / CHO-K1 xenograft-bearing CB17-SCID mice
Assay type: in vivo
Conditions: blocking agent 2 mg/kg BW retroorbitally 2 min prior to tracer, n = 3 per group
Method: After 10 to 14 days upon arrival, CB17-SCID mice were injected subcutaneously with 2 × 10^6 HT-29 cells into one flank and 2 × 10^6 CHO-K1 cells in the opposite flank (n = 9). Body weight and tumor development were monitored every second day by caliper measurement. The respective tumor volume was calculated according to the following equation: tumor volume (mm^3) = d^2 × D/2 (where d is the shortest diameter and D the longest diameter). Animals were subjected to μPET imaging 10 days after inoculation, when tumors reached a volume of at least 300 mm^3. Tumor volume never exceeded 1 cm^3.
Xenograft-bearing CB17-SCID mice were anesthetized using isoflurane (2.5%) mixed with oxygen (1.5 L/min) to avoid movement during the imaging. Blocking agents (2 mg/kg BW FE@SUPPY or MRS1523) or the respective vehicle control (Tween-20/EtOH/0.9% physiological saline 1/9/90) was administered retroorbitally 2 min prior to the radiotracer administration (n = 3 per group). Subsequently, the animals received another retroorbital injection of 17.42 ± 4.5 MBq [^18F]FE@SUPPY into the venous plexus of the opposite eye. […] Vital parameters (respiration, body temperature) were continuously monitored using a dedicated monitoring unit (bioVet; m2m imaging, Cleveland, OH, USA) to ensure the depth of anesthesia and wellbeing of the animals.

SMILES: CCSC(=O)c1c(CC)nc(-c2ccccc2)c(C(=O)OCC[18F])c1CC [[^18F]FE@SUPPY, 5-(2-[18F]fluoroethyl) 2,4-diethyl-3-(ethylsulfanylcarbonyl)-6-phenylpyridine-5-carboxylate]
- blocking of tumor uptake of [18F]FE@SUPPY: significant blocking could not be achieved

SMILES: CCCOC(=O)c1c(-c2ccccc2)nc(CC)c(C(=O)SCC)c1CCC [MRS1523, reference compound]
- blocking of tumor uptake of [18F]FE@SUPPY: provided the same outcome
